Results deposited as PubChem BioAssay AID1671195 (Yale University, 2021).

Assay: 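Knockdowns that increase or decrease uptake of fluorescent LDL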 (primary screen)
Cell system: human Huh7 hepatoma cells
Reagents: siRNA pool against human genes, 18 nM
Timing: about 2 to 2.5 days of knockdown, then 8 h LDL uptake
Challenge: DiI-labelled LDL at 30 µg/ml for 8 h, in lipoprotein-deficient serum medium
Read-out: 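Per-cell DiI-LDL intensity by automated imaging; well means scaled to the plate median and given as a robust z-score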
Scale: robust z-score: higher = more LDL uptake after knockdown
Rule for the call: 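Active when two or more replicates show a robust z-score above 2 or below -2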
The whole screen tested about 22,000 reagents; below is an unselected part. About 1,510 of all reagents (6.9%) were called active. 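Active includes knockdowns raising or lowering LDL uptake; positive z-scores mean more uptake, negative mean less.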

PEMT [SID442902775] — robust z-score, replicate 1: -1.71; robust z-score, replicate 2: -0.903; robust z-score, replicate 3: -0.83; activity call: inactive
EBF3 [SID442895777] — robust z-score, replicate 1: -0.213; robust z-score, replicate 2: -0.276; robust z-score, replicate 3: -0.127; activity call: inactive
WAPL [SID442890020] — robust z-score, replicate 1: 1.13; robust z-score, replicate 2: -0.969; robust z-score, replicate 3: 1.26; activity call: inactive
LOC389427 (retired record) [SID442902886] — robust z-score, replicate 1: -1.23; robust z-score, replicate 2: -1.06; robust z-score, replicate 3: -1.22; activity call: inactive
EFCAB9 [SID442897865] — robust z-score, replicate 1: -0.148; robust z-score, replicate 2: -0.609; robust z-score, replicate 3: -0.543; activity call: inactive
DPM1 [SID442890105] — robust z-score, replicate 1: 0.568; robust z-score, replicate 2: 0.302; robust z-score, replicate 3: 0.519; activity call: inactive

Sorted by “robust z-score, replicate 3” (low to high): some entries from above.
LOC389427 (retired record) [SID442902886] — robust z-score, replicate 1: -1.23; robust z-score, replicate 2: -1.06; robust z-score, replicate 3: -1.22; activity call: inactive
EFCAB9 [SID442897865] — robust z-score, replicate 1: -0.148; robust z-score, replicate 2: -0.609; robust z-score, replicate 3: -0.543; activity call: inactive

The list goes on.
EWSAT1 [SID442891245] — robust z-score, replicate 1: 0.473; robust z-score, replicate 2: 0.383; robust z-score, replicate 3: 0.08; activity call: inactive
LOC151363 (retired record) [SID442899221] — robust z-score, replicate 1: -0.354; robust z-score, replicate 2: -1.42; robust z-score, replicate 3: -0.00549; activity call: inactive
LOC441776 (retired record) [SID442894215] — robust z-score, replicate 1: 0.0408; robust z-score, replicate 2: -0.0862; robust z-score, replicate 3: -0.0735; activity call: inactive
POMZP3 [SID442886083] — robust z-score, replicate 1: 0.848; robust z-score, replicate 2: 1.5; robust z-score, replicate 3: 1.47; activity call: inactive
LOC442424 (retired record) [SID442902270] — robust z-score, replicate 1: -1.28; robust z-score, replicate 2: -0.703; robust z-score, replicate 3: -1.14; activity call: inactive
LPCAT2 [SID442891548] — robust z-score, replicate 1: -0.109; robust z-score, replicate 2: 0.499; robust z-score, replicate 3: 0.428; activity call: inactive
